Experimental data from the supplement of paper PMC5949888.
Most values lie at the floor of the assay. Slopes are relative: functional sequences can read slightly below zero.

Each substance was assayed on Saccharomyces cerevisiae PS128 hsf1 delta, HSF1(1-493) fusion (assay: growth estimate (transactivation domain function in HSF1 fusion, heat-shock survival) (a.u. (slope of normalised read count over time)); higher = stronger growth at 37°C, i.e. more transactivation activity). Settings: library: random library.

| Substance | growth estimate |
| --- | --- |
| VLGGSSVHLVEHDSTIDERR | < -0.25 |
| VLGIGIRPSFGTATVHSRLR | < -0.25 |
| VLGVTESVYHGTRE | < -0.25 |
| VLGWPPLLLRAVPHWMDPSG | < -0.25 |
| VLHYQLKSRVVDNLRRNLKT | < -0.25 |
| VLIDRFLGHTYFRESRDFCL | 0.142 |
| VLIEDTTPRPGTDGNDPPPQ | < -0.25 |
| VLILQVKR | < -0.25 |
| VLKDVGRQRLGLWLGRA | < -0.25 |
| VLKEKVLF | 0.0622 |
| VLKNE | < -0.25 |
| VLLHGSECPVP | < -0.25 |
| VLLIFPRTPTYLRRNMVWPI | < -0.25 |
| VLLQAWS | < -0.25 |
| VLLYTARTISSG | < -0.25 |
| VLNGGVLKRLRGKRESFGPV | < -0.25 |
| VLNQMHCLGVFLAAGAHGST | < -0.25 |
| VLPFTYAVHPQY | -0.245 |
| VLPLVRDSSSAPHQPAPCTV | < -0.25 |
| VLPQFV | < -0.25 |
| VLPTTRSHFSCSTHLN | < -0.25 |
| VLQEPGIVTI | < -0.25 |
| VLQIRIRSMRKKSRD | -0.243 |
| VLQSRRCTILATVYIDLAES | < -0.25 |
| VLRAPCHFVWPIMEYWAASR | < -0.25 |

| Substance | growth estimate |
| --- | --- |
| VLRCLVNKMENRVSSQYC | < -0.25 |
| VLRFRFTLEA | < -0.25 |
| VLRGLSRLAADLFNCRWLLG | < -0.25 |
| VLRMAKRMLLDSNAQFRNRA | < -0.25 |
| VLSALAFDLN | < -0.25 |
| VLSASLTRYQCSRGDHVWPS | < -0.25 |
| VLSAVTWQIWRALLESTRAP | < -0.25 |
| VLSGEDVVHRASKRLDADSR | < -0.25 |
| VLSHRRYAVESRNRFNVPHN | < -0.25 |
| VLSRARYESVFFTAPSRRSS | < -0.25 |
| VLTFFRGIAKWGRRLSQGPW | < -0.25 |
| VLTR | < -0.25 |
| VLTVRYAGTRPLSVDRGNCL | -0.248 |
| VLVHW | < -0.25 |
| VLVSAPCKPE | < -0.25 |
| VLVTNVLRSWESAPAHVAEL | < -0.25 |
| VMAGLSIKVTRRSPCFRAAL | < -0.25 |
| VMAMVNVRGF | < -0.25 |
| VMDP | < -0.25 |
| VMDR | < -0.25 |
| VMGGIVPAGCGLFDRGMQ | < -0.25 |
| VMGLKEEFLKITPRSCDPP | < -0.25 |
| VMGSIVYCFTNARDSVYGWT | < -0.25 |
| VMGSRNSWAKAISPLSSRLD | < -0.25 |
| VMGSRRVAIHNKARPMHVPT | < -0.25 |

| Substance | growth estimate |
| --- | --- |
| VMLGSGCKGVTADE | < -0.25 |
| VMPADKLPGRHFQSWHFNPA | -0.246 |
| VMPELQLCLFPLERRISLPV | < -0.25 |
| VMRAFSHGEYAREETAASSD | < -0.25 |
| VMRECTGSHVTMQVCSDRAI | < -0.25 |
| VMSC | < -0.25 |
| VMSGRGLVM | < -0.25 |
| VMSILAGTRRSALRPSTLLS | < -0.25 |
| VMVHLSSYGARRSRLCGEAH | < -0.25 |
| VMVPDTLYCILPVPTACRVR | < -0.25 |
| VMVPWTRRYNCLVCSYRADV | -0.248 |
| VNA | < -0.25 |
| VNALNGTPKEGEKRASLRGR | < -0.25 |
| VNAQS | < -0.25 |
| VNCSVYVWLS | < -0.25 |
| VNFG | < -0.25 |
| VNFRHAALRR | < -0.25 |
| VNGVGTMVSSACPGNVPTGQ | -0.25 |
| VNKYGSLESTLRKTLEWMPN | < -0.25 |
| VNLCKEYQANIGPTMGNEVS | < -0.25 |
| VNNLAIKKEGKGGLERRRLC | < -0.25 |
| VNNTVESAMINTFGRYRAQE | < -0.25 |
| VNPDAAPRKNRI | < -0.25 |
| VNRDDAETYSLTSRQYSLYC | < -0.25 |
| VNRNEWLCEVDGQPVGWWTD | < -0.25 |

| Substance | growth estimate |
| --- | --- |
| VNTCTICDHRFNQDPIDSRF | < -0.25 |
| VNTTGVSGGF | < -0.25 |
| VNVAGLRR | < -0.25 |
| VNVECSDLGG | < -0.25 |
| VPALVVSRALLGNVGSAPRV | < -0.25 |
| VPAMLLGNTEKRGAGIRKQL | < -0.25 |
| VPAMVLAPTLSQLSLTGSCG | < -0.25 |
| VPCSTTVHGRDLKMRRPSRV | < -0.25 |
| VPDKSSAS | < -0.25 |
| VPDRCESGSGG | < -0.25 |
| VPEQT | < -0.25 |
| VPERE | < -0.25 |
| VPESFGCDVISRK | < -0.25 |
| VPEYVRSMAG | < -0.25 |
| VPFESSVWPATWCVKR | < -0.25 |
| VPFLCLEIDKT | < -0.25 |
| VPFQRVSLVVPSAGRRAGVT | < -0.25 |
| VPFTCSVRGELTGGVAAIKT | < -0.25 |
| VPGRSLRSNSAALCRWKP | < -0.25 |
| VPHDLLAILCGPREISEHII | < -0.25 |
| VPHSCTRTNGTQKGILWYGY | < -0.25 |
| VPIDYLPVLWDLP | 0.0249 |
| VPIHRCFVCVMVFYSPLPES | < -0.25 |
| VPIPEVCDPDLHKVHAAPCF | < -0.25 |
| VPIRHMHSLFG | < -0.25 |

| Substance | growth estimate |
| --- | --- |
| VPIYLSLGRYQVSGRSRSRS | < -0.25 |
| VPKWVPLHSG | < -0.25 |
| VPLFASE | < -0.25 |
| VPLSMPRER | < -0.25 |
| VPMV | < -0.25 |
| VPNAR | < -0.25 |
| VPNVMRRLDTWSRVHSPFGG | < -0.25 |
| VPPL | < -0.25 |
| VPPLRIRPLIIRAVIRGGYI | -0.203 |
| VPPLRQLLKPCREMLVRISR | -0.227 |
| VPPQGKKEL | < -0.25 |
| VPQSTRNESSGEHAPDRAPR | < -0.25 |
| VPQTCRGVFRLPQERLKWRY | < -0.25 |
| VPRA | < -0.25 |
| VPRGDCKCRG | < -0.25 |
| VPRIYTF | < -0.25 |
| VPSC | < -0.25 |
| VPSRRYVMRHRWITEIPIPT | < -0.25 |
| VPSSRVQ | < -0.25 |
| VPSWDPQTREVGW | < -0.25 |
| VPTHRRINSLGQSIARLRTR | < -0.25 |
| VPTPGKSLWHESALELDPGC | -0.237 |
| VPTVHVSDTGYMREE | < -0.25 |
| VPVGVLP | < -0.25 |
| VPVMQGIDGLALQEDFDPKV | < -0.25 |

| Substance | growth estimate |
| --- | --- |
| VPYLHV | < -0.25 |
| VQAYWFKVHRYSGYRGLDAI | < -0.25 |
| VQCGKLPKIAHCQRSQGRNE | < -0.25 |
| VQCPVGSRTDAL | < -0.25 |
| VQCWIARVLNTRFTVLIARV | < -0.25 |
| VQET | -0.241 |
| VQFAWRLSRLQLLRTR | < -0.25 |
| VQFELQAHGL | < -0.25 |
| VQGPVVRKTFGIIS | < -0.25 |
| VQGQRGRAGEKYQSRLETWL | < -0.25 |
| VQGSLSAQPYGLCKSGDSPT | < -0.25 |
| VQIPLVILVRDLLGPVTWNA | < -0.25 |
| VQIRLEVRGISRGFECGSVP | < -0.25 |
| VQKDLEISGYISMGIKCGSL | < -0.25 |
| VQLRGLLDSVSSGPVAGGTA | < -0.25 |
| VQNVEARTAGASMSSVADNL | < -0.25 |
| VQPALRWMQAMQCDHRMIWR | < -0.25 |
| VQPPRDHGACSRPKCRLLAQ | < -0.25 |
| VQQ | < -0.25 |
| VQQF | < -0.25 |
| VQQIL | < -0.25 |
| VQRGIRFKRQSGKRGRGDRI | < -0.25 |
| VQRVRATKGTMNDSALGKLW | < -0.25 |
| VQSK | < -0.25 |
| VQTVHRFK | < -0.25 |

| Substance | growth estimate |
| --- | --- |
| VQVLRPAKTVIFSASTRSPP | < -0.25 |
| VQVPTVA | < -0.25 |
| VQVSN | < -0.25 |
| VRAMGHQRGEISTLRLAQSL | < -0.25 |
| VRCFHCRVR | < -0.25 |
| VRCWL | < -0.25 |
| VRDGTDGAGGLATTNTNSRR | < -0.25 |
| VRDRSTNNLEPLLC | < -0.25 |
| VRDTRPHASRVRAIVAVVDP | < -0.25 |
| VREGPVLGDARARVSSVWQV | < -0.25 |
| VREMSN | < -0.25 |
| VRFRTFRTSGSSIYR | < -0.25 |
| VRGATE | < -0.25 |
| VRGCRVSWILSRLCMMA | < -0.25 |
| VRGDTPRALAIERNRSDARS | < -0.25 |
| VRGEGRQVGWALPVYG | < -0.25 |
| VRGRRPIGGVA | -0.0379 |
| VRGSRGLACRVTARY | < -0.25 |
| VRGVLSAWRSCHWNYVGPNR | < -0.25 |
| VRHDRDYCRNNSWWIETTQV | < -0.25 |
| VRIKSSARRIEAGAGGTNAP | -0.231 |
| VRILLAEASCLVANRGGLAW | < -0.25 |
| VRIRFHRSLSGSSRNTVVTT | < -0.25 |
| VRIVEKVDRTANCGSAPLSV | -0.246 |
| VRKGADFSYSRQAHVAGRVP | < -0.25 |

| Substance | growth estimate |
| --- | --- |
| VRKRRWGLLGERLRDKVFCA | < -0.25 |
| VRKSGSTAL | < -0.25 |
| VRLARLSARVQSSPALNLAS | < -0.25 |
| VRLARLSYGTGCIHYSCLCC | < -0.25 |
| VRLDERGRMYVNFLYEIIGD | < -0.25 |
| VRLGKSVRFAQR | < -0.25 |
| VRLMNEDTGRKPI | < -0.25 |
| VRLPTLTWSSQD | < -0.25 |
| VRLRLAYKSFRGYISFALRS | < -0.25 |
| VRMMLFSMPRNRGSTRKFLD | < -0.25 |
| VRNSLPVLLGAGFCNRQA | < -0.25 |
| VRPAIILRFRNLQHFSSTAG | < -0.25 |
| VRPDDNCTHASGNVRS | < -0.25 |
| VRPPQVEGARGRSTVKGEE | < -0.25 |
| VRPRGPYAVILFSDDPNLHV | < -0.25 |
| VRPVVGTGGVGSGTHRAQST | < -0.25 |
| VRPWSL | < -0.25 |
| VRQASFV | -0.243 |
| VRQCQWLRLGNTVLGGPSAR | < -0.25 |
| VRQRFMNHLNFKRPFDTVRV | < -0.25 |
| VRRAGRAEFAGGTLLSASCR | < -0.25 |

For convenience, part of the list above.

| Substance | growth estimate |
| --- | --- |
| VMRECTGSHVTMQVCSDRAI | < -0.25 |
| VMSC | < -0.25 |
| VMSGRGLVM | < -0.25 |
| VMSILAGTRRSALRPSTLLS | < -0.25 |
| VMVHLSSYGARRSRLCGEAH | < -0.25 |
| VMVPDTLYCILPVPTACRVR | < -0.25 |
| VMVPWTRRYNCLVCSYRADV | -0.248 |

Five entries picked at random from the list so far, as already listed:

| Substance | growth estimate |
| --- | --- |
| VRPRGPYAVILFSDDPNLHV | < -0.25 |
| VRPWSL | < -0.25 |
| VRKRRWGLLGERLRDKVFCA | < -0.25 |
| VRQASFV | -0.243 |
| VRQCQWLRLGNTVLGGPSAR | < -0.25 |
